Experimental data: PubChem BioAssay
Inconclusive means that the source gave no clear call. Such entries were picked first, then a sample of the others. Activity calls are given as the source filed them. Unless noted, how the calls were made is not given here.

Columns and labels:
[1] = general cell-killing toxicity readout – plate reader, dry powder samples, cytotoxicity control for PAX8 inhibitor project, dose response (AID 743021); conditions: cell line, non-specific cytotoxicity counter-screen; at 35 µM (top of the series) unless noted
[2] = IGROV1 cell killing – plate reader, dry powder samples, PAX8 inhibitor project, dose response (AID 743043); conditions: IGROV1 ovarian cancer cell cytotoxicity; at 35 µM (top of the series) unless noted;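 further: more negative means fewer viable cells or more cytotoxicity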
[3] = A2780 cell killing – plate reader, dry powder samples, cytotoxicity control, dose response (AID 743046); conditions: A2780 ovarian cancer cytotoxicity; at 35 µM (top of the series) unless noted;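 further: 0% = neutral control wells and -100% = cytotoxic reference compound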
[4] = CMV-driven luciferase expression suppression in HEK293 – cell-based, luminescence, dry powder, counter-screen for Pax8 inhibitor project, dose response (AID 743020;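 active means signal-lowering compounds whose fitted half-maximal concentration is at or below twice the top tested dose in every run; inconclusive means runs disagree, flat 30 to 70% inhibition, or poor curve fit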;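 further: HEK293 cells stably expressing the CMV luciferase reporter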); conditions: HEK293 CMV-luciferase reporter, SteadyGlo luminescence, 24 h; at 35 µM (top of the series) unless noted
[5] = OVCAR8 cell viability loss – plate reader, dry powder samples, PAX8 project, dose response (AID 743197); conditions: at 35 µM (top of the series)
[6] = OVCAR-3 cell viability loss – plate reader, dry powder samples, PAX8 inhibitor project, dose response (AID 743044); conditions: max activity: at 35 µM, hits give low values unless noted

SMILES: O=C(Nc1ccc(C(F)(F)F)cc1)N1C[C@@H]2N[C@H](C1)C2c1ccc(-c2ccccc2)cc1 (some centres not stated)
- activity change, negative = cytotoxicity [1]: inactive: 18.3% [at 16 µM]

SMILES: COc1ccc(NC(=O)Nc2ccc3c(c2)C(=O)N([C@@H](C)CO)C[C@@H](C)[C@@H](CN(C)CC2CCCCC2)OCCCC[C@@H](C)O3)cc1
- activity change, negative = cytotoxicity [1]: inactive: -33.9%

SMILES: C[C@@H]1CN([C@@H](C)CO)C(=O)Cc2cc(NS(=O)(=O)c3ccc(F)cc3)ccc2O[C@H]1CN(C)Cc1ccc(Oc2ccccc2)cc1
- activity change, negative = cytotoxicity [1]: inactive: -22%

SMILES: CCc1cnc(N2[C@@H](C#N)[C@@H](c3ccc(C#CC(C)C)cc3)[C@@H]2CO)s1
- activity change, negative = cytotoxicity [1]: inconclusive: -17.6%
- activity change, negative = cytotoxicity [2]: inconclusive: 12.3%
- activity change, negative = cytotoxicity [3]: inconclusive: -53.9%

SMILES: COc1ccc(S(=O)(=O)Nc2ccc3c(c2)CC(=O)N([C@@H](C)CO)C[C@H](C)[C@@H](CN(C)Cc2ccc(C(F)(F)F)cc2)O3)cc1
- activity change, negative = cytotoxicity [1]: inconclusive: -38.5%

SMILES: O=C(N1CCCCC1)[C@@]1(CCS(=O)(=O)c2ccccc2)N=C(c2ccc(OCCCO)cc2)O[C@H]1c1ccccc1
- activity change, negative = cytotoxicity [1]: inconclusive: -1.53% [at 50 µM]

SMILES: C[C@@H]1CCCCO[C@@H](CN(C)Cc2ccc(Cl)c(Cl)c2)[C@H](C)CN([C@@H](C)CO)C(=O)c2cc(NS(=O)(=O)c3ccccc3)ccc2O1
- activity change, negative = inhibition [4]: inactive: -5.3%
- activity change, negative = cytotoxicity [5]: inconclusive: -58.5%

SMILES: COc1ccccc1C#Cc1ccc2c(c1)O[C@@H](CN(C)Cc1ccncc1)[C@H](C)CN([C@H](C)CO)S2(=O)=O
- activity change, negative = cytotoxicity [1]: inconclusive: -138%
- activity change, negative = cytotoxicity [2]: inconclusive: -9.11%

SMILES: C[C@@H]1CN([C@H](C)CO)C(=O)Cc2cc(NC(=O)Cc3ccccc3)ccc2O[C@@H]1CN(C)Cc1ccc(C(F)(F)F)cc1
- activity change, negative = cytotoxicity [1]: inactive: 4.24%

SMILES: O=C(C[C@H]1CC[C@H]2[C@@H](COC[C@@H](O)CN2S(=O)(=O)c2cccc(Cl)c2)O1)Nc1ccc(-c2ccccc2)cc1
- activity change, negative = cytotoxicity [1]: inconclusive: -29%

SMILES: Cc1ccc(S(=O)(=O)Nc2ccc3c(c2)C(=O)N([C@@H](C)CO)C[C@H](C)[C@@H](CN(C)Cc2ccc(C(F)(F)F)cc2)OCCCC[C@@H](C)O3)cc1
- activity change, negative = inhibition [4]: inactive: -0.625%
- activity change, negative = cytotoxicity [3]: inactive: 12.4% [at 16 µM]

SMILES: C[C@H]1CN([C@@H](C)CO)C(=O)c2ccccc2-c2ccccc2CO[C@H]1CN(C)S(=O)(=O)c1ccc(C(F)(F)F)cc1
- activity change, negative = cytotoxicity [1]: inactive: -11.2%

SMILES: COc1cccc(S(=O)(=O)Nc2ccc3c(c2)[C@@H]2C[C@@H](CC(=O)NCc4ccc(Cl)cc4)O[C@@H](CO)[C@@H]2O3)c1
- activity change, negative = cytotoxicity [1]: inactive: -30.1%

SMILES: CC(=O)c1cccc(-c2csc3ncnc(Sc4nnnn4C)c23)c1
- activity change, negative = cytotoxicity [1]: inactive: 15.8%

SMILES: CCCn1c(C)cc(C(=O)CN2C(=O)c3ccccc3S2(=O)=O)c1C
- activity change, negative = cytotoxicity [1]: inconclusive: -8.24% [at 50 µM]

SMILES: Cc1ccc(S(=O)(=O)Nc2ccc3c(c2)C(=O)N([C@H](C)CO)C[C@@H](C)[C@H](CN(C)S(=O)(=O)c2ccccc2)OCCCC[C@H](C)O3)cc1
- activity change, negative = cytotoxicity [1]: inactive: -20.8%

SMILES: COc1cccc2sc(N(CCCN(C)C)C(=O)CCS(=O)(=O)c3ccccc3)nc12
- activity change, negative = cytotoxicity [1]: inconclusive: -156% [at 26 µM]

SMILES: C[C@H]1CN([C@@H](C)CO)C(=O)c2cccc(NC(=O)Nc3ccc(C(F)(F)F)cc3)c2O[C@H]1CN(C)C(=O)NC1CCCCC1
- activity change, negative = cytotoxicity [1]: inactive: 1.75%

SMILES: O=C(c1cc(-c2cccs2)on1)N1CCN(C(c2ccccc2)c2ccccc2)CC1
- activity change, negative = cytotoxicity [1]: inconclusive: 28.1% [at 50 µM]

SMILES: NS(=O)(=O)c1ccc(CCN2C(=O)/C(=C\c3ccc(Cl)cc3)SC2=S)cc1
- activity change, negative = cytotoxicity [1]: inconclusive: -57.3% [at 50 µM]

SMILES: C[C@H](CO)N1C[C@H](C)[C@H](CN(C)C(=O)Nc2ccc(-c3cccs3)cc2)OCc2cnnn2CCCC1=O
- activity change, negative = inhibition [4]: inactive: 8.43%
- activity change, negative = cytotoxicity [3]: inactive: 0.653%

SMILES: N#C[C@@H]1[C@@H](c2ccc(C#Cc3ccccc3F)cc2)[C@@H](CO)N1C(=O)C1CCCC1
- activity change, negative = cytotoxicity [1]: inconclusive: -28.1%

SMILES: CCCC#Cc1ccc([C@@H]2[C@@H](C#N)N(C(=O)C3CCCCC3)[C@H]2CO)cc1
- activity change, negative = cytotoxicity [1]: inconclusive: -39.2%
- max activity [6]: inconclusive: 17% [at 4.2 µM, hits give low values]

SMILES: C[C@H](CO)N1C[C@H](C)[C@@H](CN(C)Cc2ccc(-c3ccccc3)cc2)Oc2ccc(NC(=O)C3CC3)cc2CC1=O
- activity change, negative = cytotoxicity [1]: inconclusive: -63.9%

SMILES: N#C[C@H]1[C@@H](c2ccc(C#Cc3cccc(F)c3)cc2)[C@@H](CO)N1C(=O)C1CCCC1
- activity change, negative = cytotoxicity [1]: inconclusive: -11%

SMILES: N#C[C@H]1[C@@H](c2ccc(C#Cc3ccc(F)cc3)cc2)[C@H](CO)N1C(=O)C1CCCC1
- activity change, negative = cytotoxicity [1]: inconclusive: -50.7%
- activity change, negative = cytotoxicity [2]: inconclusive: -22.8%
- activity change, negative = cytotoxicity [3]: inconclusive: -10.6%

SMILES: CCCC#Cc1ccc([C@@H]2[C@@H](C#N)N(S(=O)(=O)c3cccc(F)c3)[C@H]2CO)cc1
- activity change, negative = cytotoxicity [1]: inconclusive: -5.15%

SMILES: C[C@H](CO)N1C[C@H](C)[C@@H](CN(C)Cc2ccc(-c3ccccc3)cc2)Oc2ccc(NS(=O)(=O)c3ccccc3)cc2CC1=O
- activity change, negative = cytotoxicity [1]: inconclusive: -24.6%
- activity change, negative = cytotoxicity [2]: inconclusive: -19.3%
- activity change, negative = cytotoxicity [3]: inconclusive: -31.6%

SMILES: COc1ccccc1C#Cc1ccc([C@H]2[C@@H](CO)N(C(=O)C3CCCC3)[C@H]2C#N)cc1
- activity change, negative = cytotoxicity [1]: inconclusive: -34.8%

SMILES: Fc1cccc(CN2C[C@@H]3N[C@H](C2)C3c2ccc(-c3ccccc3)cc2)c1 (some centres not stated)
- activity change, negative = cytotoxicity [1]: inactive: -14.2%

SMILES: C[C@@H]1CN([C@@H](C)CO)C(=O)c2cc(NS(=O)(=O)c3ccc(Cl)cc3)ccc2O[C@@H](C)CCCCO[C@H]1CN(C)Cc1ccc(C(F)(F)F)cc1
- activity change, negative = cytotoxicity [1]: inactive: -1.25%

SMILES: C=C(C)c1nc(Oc2ccccc2)nc(Oc2ccccc2)n1
- activity change, negative = cytotoxicity [1]: inactive: 9.72%

SMILES: CCc1ccc(/C=C2\SC(=S)N(CCCC(=O)N(CCO)c3ccccc3)C2=O)cc1
- activity change, negative = cytotoxicity [1]: inconclusive: 59.1% [at 50 µM]

SMILES: Cc1noc(C)c1S(=O)(=O)Nc1ccc2c(c1)C(=O)N([C@H](C)CO)C[C@@H](C)[C@@H](CN(C)Cc1ccc(C(F)(F)F)cc1)OCCCC[C@H](C)O2
- activity change, negative = cytotoxicity [1]: inactive: -24.8% [at 30 µM]

SMILES: O=S(=O)(Nc1cccc2cccnc12)c1ccccc1
- activity change, negative = cytotoxicity [1]: inconclusive: -21.5% [at 50 µM]

SMILES: C[C@@H]1CCCCO[C@@H](CN(C)Cc2ccc3c(c2)OCO3)[C@@H](C)CN([C@@H](C)CO)C(=O)c2cc(NC(=O)Nc3ccc(C(F)(F)F)cc3)ccc2O1
- activity change, negative = cytotoxicity [1]: inactive: -17.4%
